Reference: publication doi:10.1101/2024.07.30.605799 (bioRxiv, 2024)
These are yes or no findings as the source states them, for the method shown.

Target: human CAD DHO domain bearing S1538L (human) (UniProt P27708)
Experiment: SEC

binding: no binding (condition: with 2 mM Ca-Asp)
B1: human CAD DHO domain bearing S1538L (domain or fragment, UniProt P27708 1456-1846, looked up)
chain: MTSQKLVRLPGLIDVHVHLREPGGTHKEDFASGTAAALAGGITMVCAMPNTRPPIIDAPALALAQKLAEAGARCDFALFLGALSENAGTLGTVAGSAAGLKLYLNETFSELRLDSVVQWMEHFETWPSHLPIVAHAEQQTVAAVLMVAQLTQRSVHICHVARKEEILLIKAAKARGLPVTCEVAPHHLFLSHDDLERLGPGKGEVRPELGSRQDVEALWENMAVIDCFASDHAPHTLEEKCGSRPPPGFPGLETMLPLLLTAVSEGRLSLDDLLQRLHHNPRRIFHLPPQEDTYVEVDLEHEWTIPSHMPFSKAHWTPFEGQKVKGTVRRVVLRGEVAYIDGQVLVPPGYGQDVRKWPQGAVPQLPPSAPATSEMTTTPERPRRGIPGLPD
modifications: carboxylated lysine K1556
